In patent publication US20260028417A1 (SICHUAN KELUN BIOTECH BIOPHARMACEUTICAL, published 2026):

B1: 22B6D2 (anti-human HER3 chimeric antibody) (antibody, V domains shown)
VH: EVHLVESGGGVVQPGRSLRLSCATSGFTFRSYGMHWVRQAPGKGLEWVAVIWYDGSNKYYADSVKGRFTISRDISKNTLYLQMNSLTAEDTAVYYCARYYYDSNGYYDAFDIWGQGTMVTVSS
VL: DIQLTQSPSFLSASVGDRVTITCRASQGISNYLAWYQQKPGKAPKLLIFAASTLQSGVPSRFSGSGSGAEFTLTISSLEPEDFATYYCQQLNSYPITFGQGTRLEIK
notes: detected with anti-Rat IgG
B2: 22B6D2-hIgG (anti-human HER3 fully human antibody) (antibody, V domains shown)
VH: B1 VH
VL: DIQLTQSPSFLSASVGDRVTITCRASQGISNYLAWYQQKPGKAPKLLIFAASTLQSGVPSRFSGSGSGAEFTLTISSLEPEDFATYYCQQLNSYPITFGQGTRLEIKR
notes: Human IgG1/kappa, expressed in CHO-S cells; also called 22B6D2-hIgG-Bio (biotin-labelled)
B3: 44A4A11 (anti-human HER3 chimeric antibody) (antibody, V domains shown)
VH: EVQLLESGGGLVQPGGSLRLSCAASGFTFSSYAMNWVRQAPGKGLEWVSSISDSGGSTYYADSVKGRFTISRDNSKNTLYLQMNSLRAEDTAVYYCAKDGGISMVRGVIIEEGYFDLWGRGTLVTSPQ
VL: DIQLTQSPSFLSASVGDRVTITCRASQGISSYLAWYQQKPGKAPKLLIYVVSTLQSGVPSRFSGSGSGTEFTLTISSLQPEDFATYYCHQLNSYPLTFGGGTKVEIK
B4: 47A3E3 (anti-human HER3 chimeric antibody) (antibody, V domains shown)
VH: EVQLQESGPGLVKPSQTLSLTCAISGDSVSSSQSTWNWIRQSPSRGLEWLGRTFYRSRWYNDYALSMKSRITINPDTSKNQFSLQLNPVTPEDTAVYYCARDTYYYGSGGFDYWGQGSRVTVSS
VL: DIQMTQSPSTLSASVGDRVTITCRASQSLSRWLAWYQQKPEKAPKLLIYKASSLESGVPSRFSGSGSGTEFTLTISTLQPDDFATYYCQQYKNYYSFGQGTKLEIK
B5: 47A3E3-hIgG (anti-human HER3 fully human antibody) (antibody, V domains shown)
VH: B4 VH
VL: DIQMTQSPSTLSASVGDRVTITCRASQSLSRWLAWYQQKPEKAPKLLIYKASSLESGVPSRFSGSGSGTEFTLTISTLQPDDFATYYCQQYKNYYSFGQGTKLEIKR
notes: Human IgG1/kappa, expressed in CHO-S cells; also called 47A3E3-hIgG-Bio (biotin-labelled)
B6: 100H7D3 (anti-human HER3 chimeric antibody) (antibody, V domains shown)
VH: EVQLVESGGGVVLPGRSLRLSCAASGFTFSRNAMHWVRQAPGKGLEWVAVIWHDGSNKYYGDSVKGRFTISRDNSKNTLYLQMDSLTAEDTAVYYCARDRGASDFRGQGTLVTVSS
VL: DIQMTQSPSTLSASVGDRVTITCRASQSINNWLAWYQQKPEKAPKLLIYKASSLESGVPSRFSGSGSGTEFTLTISSLQPDDFATYYCQQYNSYSLTFGGGTKVEIK
B7: 100H7D3-hIgG (anti-human HER3 fully human antibody) (antibody, V domains shown)
VH: B6 VH
VL: DIQMTQSPSTLSASVGDRVTITCRASQSINNWLAWYQQKPEKAPKLLIYKASSLESGVPSRFSGSGSGTEFTLTISSLQPDDFATYYCQQYNSYSLTFGGGTKVEIKR
notes: Human IgG1/kappa, expressed in CHO-S cells; also called 100H7D3-hIgG-Bio (biotin-labelled)

Target: monkey HER3 protein (extracellular sequence with six histidines at the C-terminal) (monkey)
Experiment: ELISA, coated monkey HER3 protein

binding	Binder
binds	B1
binds	B2
binds	B3
binds	B4
binds	B5
binds	B6
binds	B7

No constants are given. Whether binding was seen depends on the method and setting. Binding calls can cover weak binding; strength is not graded here.
